Test results taken from article PMC4279394.
Results are given in words; binding and its absence hold for the method and conditions named. Binding seen in cells or lysates may run through a third protein. Binding calls can cover weak binding; strength is not graded here.

Amino acid sequences for entries named in this document (tags omitted). A change or cut given only in a name is not applied to a line headed by its entry.
UniProt P56693: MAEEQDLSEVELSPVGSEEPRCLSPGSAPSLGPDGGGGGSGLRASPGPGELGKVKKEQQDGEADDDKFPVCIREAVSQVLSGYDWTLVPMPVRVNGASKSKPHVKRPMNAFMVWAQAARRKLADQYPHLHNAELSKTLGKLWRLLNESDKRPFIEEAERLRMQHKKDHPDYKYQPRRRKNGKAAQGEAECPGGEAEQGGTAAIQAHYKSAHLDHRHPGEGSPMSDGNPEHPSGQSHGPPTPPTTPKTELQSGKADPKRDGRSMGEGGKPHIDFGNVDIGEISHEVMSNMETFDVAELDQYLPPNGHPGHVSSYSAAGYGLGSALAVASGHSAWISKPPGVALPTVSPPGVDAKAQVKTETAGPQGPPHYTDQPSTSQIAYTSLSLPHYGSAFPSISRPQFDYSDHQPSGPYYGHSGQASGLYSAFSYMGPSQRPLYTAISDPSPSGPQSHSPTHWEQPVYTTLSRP
UniProt P35222: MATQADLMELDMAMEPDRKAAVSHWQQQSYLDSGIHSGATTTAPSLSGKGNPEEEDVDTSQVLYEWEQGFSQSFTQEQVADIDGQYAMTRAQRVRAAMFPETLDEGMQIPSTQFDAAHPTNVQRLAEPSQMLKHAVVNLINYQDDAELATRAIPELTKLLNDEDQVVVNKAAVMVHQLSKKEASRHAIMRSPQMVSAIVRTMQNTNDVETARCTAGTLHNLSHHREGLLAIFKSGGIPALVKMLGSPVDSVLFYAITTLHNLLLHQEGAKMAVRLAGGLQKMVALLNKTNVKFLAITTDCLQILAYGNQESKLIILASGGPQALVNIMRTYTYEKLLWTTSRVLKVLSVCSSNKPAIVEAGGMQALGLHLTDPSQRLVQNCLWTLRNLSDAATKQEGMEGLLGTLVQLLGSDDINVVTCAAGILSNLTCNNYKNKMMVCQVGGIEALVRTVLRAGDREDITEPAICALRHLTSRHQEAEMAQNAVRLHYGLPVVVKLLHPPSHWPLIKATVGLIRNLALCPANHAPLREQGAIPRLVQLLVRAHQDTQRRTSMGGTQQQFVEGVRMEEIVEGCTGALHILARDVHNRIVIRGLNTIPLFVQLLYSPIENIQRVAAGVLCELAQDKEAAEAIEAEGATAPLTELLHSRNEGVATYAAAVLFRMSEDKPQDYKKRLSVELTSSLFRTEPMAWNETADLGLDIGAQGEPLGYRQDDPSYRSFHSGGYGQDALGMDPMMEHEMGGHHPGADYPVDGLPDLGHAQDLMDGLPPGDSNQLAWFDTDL

Molecular target: V5-tagged SOX10-482ins6 mutant (human) (UniProt P56693)
Experiment: co-IP; whole-cell extracts of cells expressing V5-SOX10 or its mutants (3G, DB, 482ins6); endogenous β-catenin; cell line (HCT116 or 293T) and precipitating antibody not stated for this panel (Figure 6B)

Question: “endogenous β-catenin (from UniProt P35222 1-781)” was tested. Which binding did it give?
Answer: The binding was “binds”.
